Test results as given in patent US7160907B2, “Pleuromutilin derivatives” (SmithKline Beecham P.L.C., priority 2000, dated 2007).
Some of these results come from one statement about several compounds together. At least one structure is not confirmed: it was looked up by name or label, or the drawing left a doubt.

Assays:
Format in all cases: cell-based
[1] = tested on: Staphylococcus aureus Oxford; assay: conventional MIC assay, Staphylococcus aureus Oxford; conditions: against Staphylococcus aureus Oxford
Description: (§1) Compounds of the present invention were assessed for anti-bacterial activity in a conventional MIC assay against a range of pathogenic organisms.

[2] = tested on: Streptococcus pneumoniae 1629; assay: conventional MIC assay, Streptococcus pneumoniae 1629; conditions: against Streptococcus pneumoniae 1629
Description: as §1

[3] = tested on: Moraxella catarrhalis 1502; assay: conventional MIC assay, Moraxella catarrhalis 1502; conditions: against Moraxella catarrhalis 1502
Description: as §1

[4] = tested on: Haemophilus influenzae Q1; assay: conventional MIC assay, Haemophilus influenzae Q1; conditions: against Haemophilus influenzae Q1
Description: as §1

Measured: MIC

C=C[C@]1(C)C[C@@H](OC(=O)NC(=O)O[C@@H]2CNC(=O)C2)[C@]2(C)[C@H](C)CC[C@]3(CCC(=O)[C@H]32)[C@@H](C)[C@@H]1O [Example 25]
≤ 4 µg/mL: all assays above

C=C[C@]1(C)C[C@@H](OC(=O)NC(=O)OC2CCNCC2)[C@]2(C)[C@H](C)CC[C@]3(CCC(=O)[C@H]32)[C@@H](C)[C@@H]1O.Cl [Example 47]
≤ 4 µg/mL: all assays above

C=C[C@]1(C)C[C@@H](OC(=O)NC(=O)O[C@H](C)COC(N)=O)[C@]2(C)[C@H](C)CC[C@]3(CCC(=O)[C@H]32)[C@@H](C)[C@@H]1O [Example 17]
≤ 4 µg/mL: all assays above

C=C[C@]1(C)C[C@@H](OC(=O)NC(=O)OCCS(C)(=O)=O)[C@]2(C)[C@H](C)CC[C@]3(CCC(=O)[C@H]32)[C@@H](C)[C@@H]1O [Example 1, Mutilin 14-[N-(2-methylsulfonylethoxycarbonyl)]carbamate]
≤ 4 µg/mL: all assays above

CC[C@]1(C)C[C@@H](OC(=O)NC(=O)O[C@@H]2CCNC2)[C@]2(C)[C@H](C)CC[C@]3(CCC(=O)[C@H]32)[C@@H](C)[C@@H]1O [Example 105]
≤ 4 µg/mL: all assays above

C=C[C@]1(C)C[C@@H](OC(=O)NC(=O)OC2(C)CNC(=O)C2)[C@]2(C)[C@H](C)CC[C@]3(CCC(=O)[C@H]32)[C@@H](C)[C@@H]1O (stereo partly drawn) [Example 85]
≤ 4 µg/mL: all assays above

C=CC1(C)CC(OC(=O)NC(=O)OC(C)C(C)OC(N)=O)C2(C)C(C)CCC3(CCC(=O)C32)C(C)C1O (stereo not drawn) [Example 18]
≤ 4 µg/mL: all assays above

C=C[C@]1(C)C[C@@H](OC(=O)NC(=O)O[C@H]2CNC(=O)C2)[C@]2(C)[C@H](C)CC[C@]3(CCC(=O)[C@H]32)[C@@H](C)[C@@H]1O [Example 24]
≤ 4 µg/mL: all assays above

C=C[C@]1(C)C[C@@H](OC(=O)NC(=O)O[C@H]2CCNC2=O)[C@]2(C)[C@H](C)CC[C@]3(CCC(=O)[C@H]32)[C@@H](C)[C@@H]1O [Example 26]
≤ 4 µg/mL: all assays above

C=C[C@]1(C)C[C@@H](OC(=O)NC(=O)OCc2ccncc2)[C@]2(C)[C@H](C)CC[C@]3(CCC(=O)[C@H]32)[C@@H](C)[C@@H]1O [Example 32]
≤ 4 µg/mL: all assays above

C=C[C@]1(C)C[C@@H](OC(=O)NC(=O)O[C@@H](C)C(N)=O)[C@]2(C)[C@H](C)CC[C@]3(CCC(=O)[C@H]32)[C@@H](C)[C@@H]1O [Example 22]
≤ 4 µg/mL: all assays above

CC[C@]1(C)C[C@@H](OC(=O)NC(=O)OCC(N)=O)[C@]2(C)[C@H](C)CC[C@]3(CCC(=O)[C@H]32)[C@@H](C)[C@@H]1O [Example 103]
≤ 4 µg/mL: all assays above

C=C[C@]1(C)C[C@@H](OC(=O)NC(=O)OC2C(=O)NCC2(C)C)[C@]2(C)[C@H](C)CC[C@]3(CCC(=O)[C@H]32)[C@@H](C)[C@@H]1O (stereo partly drawn) [Example 86]
≤ 4 µg/mL: all assays above

C=C[C@]1(C)C[C@@H](OC(=O)NC(=O)OCC(=O)NCc2cccnc2)[C@]2(C)[C@H](C)CC[C@]3(CCC(=O)[C@H]32)[C@@H](C)[C@@H]1O [Example 98]
≤ 4 µg/mL: all assays above

C=CC1(C)CC(OC(=O)NC(=O)OC2CCCNC2)C2(C)C(C)CCC3(CCC(=O)C32)C(C)C1O (mixture of isomers) [Example 46]
≤ 4 µg/mL: all assays above
